No constants are given. Whether binding was seen depends on the method and setting. Some results given as binding are weak or reduced against the parent protein; the word gives no strength.
T1: CDF6, full-length, yeast two-hybrid bait (Arabidopsis thaliana) (UniProt Q9LQX4)
T1 sequence: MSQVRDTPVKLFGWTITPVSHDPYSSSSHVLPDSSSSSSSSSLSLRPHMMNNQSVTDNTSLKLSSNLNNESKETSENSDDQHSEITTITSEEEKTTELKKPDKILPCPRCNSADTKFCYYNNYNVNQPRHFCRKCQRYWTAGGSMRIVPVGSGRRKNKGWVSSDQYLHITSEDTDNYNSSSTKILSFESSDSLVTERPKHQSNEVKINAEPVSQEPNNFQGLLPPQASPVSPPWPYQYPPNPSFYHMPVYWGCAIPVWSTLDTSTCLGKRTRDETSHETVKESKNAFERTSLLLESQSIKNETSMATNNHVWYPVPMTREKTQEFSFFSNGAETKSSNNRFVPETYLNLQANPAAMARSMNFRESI

Chains of the proteins cited; added tags and fusions are not shown.
UniProt Q8W420: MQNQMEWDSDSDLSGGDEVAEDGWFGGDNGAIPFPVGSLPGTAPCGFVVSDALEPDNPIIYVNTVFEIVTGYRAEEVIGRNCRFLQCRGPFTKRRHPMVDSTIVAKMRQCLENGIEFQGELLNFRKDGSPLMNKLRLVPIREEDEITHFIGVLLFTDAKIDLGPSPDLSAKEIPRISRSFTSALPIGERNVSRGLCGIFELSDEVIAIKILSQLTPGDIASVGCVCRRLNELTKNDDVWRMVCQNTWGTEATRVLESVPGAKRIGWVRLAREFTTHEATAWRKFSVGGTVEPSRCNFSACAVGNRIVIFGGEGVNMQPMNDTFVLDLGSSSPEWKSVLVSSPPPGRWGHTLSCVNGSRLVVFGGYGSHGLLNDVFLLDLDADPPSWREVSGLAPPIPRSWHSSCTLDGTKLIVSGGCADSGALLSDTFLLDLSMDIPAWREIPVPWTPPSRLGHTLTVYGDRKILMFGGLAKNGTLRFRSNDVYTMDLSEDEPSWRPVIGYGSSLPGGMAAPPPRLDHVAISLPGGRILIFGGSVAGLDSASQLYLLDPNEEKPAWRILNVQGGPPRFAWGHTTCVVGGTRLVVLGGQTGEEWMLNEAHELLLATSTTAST
UniProt Q9C9W9: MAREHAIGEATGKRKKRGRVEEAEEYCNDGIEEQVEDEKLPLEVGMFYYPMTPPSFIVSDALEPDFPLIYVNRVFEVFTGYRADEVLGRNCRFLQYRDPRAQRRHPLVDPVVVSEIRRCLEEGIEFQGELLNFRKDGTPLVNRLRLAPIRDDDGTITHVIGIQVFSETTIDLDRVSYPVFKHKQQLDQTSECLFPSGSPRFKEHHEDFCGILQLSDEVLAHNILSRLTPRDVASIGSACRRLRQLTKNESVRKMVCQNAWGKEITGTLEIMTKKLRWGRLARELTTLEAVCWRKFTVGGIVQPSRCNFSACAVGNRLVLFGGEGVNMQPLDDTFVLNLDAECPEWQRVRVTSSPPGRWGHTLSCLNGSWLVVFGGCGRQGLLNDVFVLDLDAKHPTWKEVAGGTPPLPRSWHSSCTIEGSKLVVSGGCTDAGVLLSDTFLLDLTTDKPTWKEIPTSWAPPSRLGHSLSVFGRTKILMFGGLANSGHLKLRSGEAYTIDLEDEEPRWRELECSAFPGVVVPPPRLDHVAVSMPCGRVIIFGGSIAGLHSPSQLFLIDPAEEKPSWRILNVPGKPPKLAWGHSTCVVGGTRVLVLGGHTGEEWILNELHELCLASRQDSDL
UniProt Q94BT6: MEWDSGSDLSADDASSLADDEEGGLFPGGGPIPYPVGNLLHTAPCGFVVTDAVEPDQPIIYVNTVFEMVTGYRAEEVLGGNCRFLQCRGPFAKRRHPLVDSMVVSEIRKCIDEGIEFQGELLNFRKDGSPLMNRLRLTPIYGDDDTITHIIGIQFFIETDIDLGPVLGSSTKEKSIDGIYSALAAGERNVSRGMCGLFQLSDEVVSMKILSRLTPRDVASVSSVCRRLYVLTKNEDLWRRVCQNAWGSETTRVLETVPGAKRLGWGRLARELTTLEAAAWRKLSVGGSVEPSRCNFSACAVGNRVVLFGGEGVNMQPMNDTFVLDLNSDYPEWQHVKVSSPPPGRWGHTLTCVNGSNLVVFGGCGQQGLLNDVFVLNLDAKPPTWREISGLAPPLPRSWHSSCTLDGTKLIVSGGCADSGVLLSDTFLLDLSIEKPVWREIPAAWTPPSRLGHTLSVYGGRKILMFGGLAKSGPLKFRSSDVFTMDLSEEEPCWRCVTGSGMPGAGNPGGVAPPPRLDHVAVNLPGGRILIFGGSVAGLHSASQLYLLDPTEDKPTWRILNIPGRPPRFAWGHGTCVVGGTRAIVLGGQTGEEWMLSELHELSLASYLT


Biological target: T1, CDF6, full-length, yeast two-hybrid bait (Arabidopsis thaliana)
Experiment: two-hybrid

| Molecule | binding |
| --- | --- |
| LKP2, yeast two-hybrid prey (from UniProt Q8W420 1-611) | binds |
| GI, full-length, yeast two-hybrid prey (protein, UniProt Q9SQI2 1-1173) MASSSSSERWIDGLQFSSLLWPPPRDPQQHKDQVVAYVEYFGQFTSEQFPDDIAELVRHQYPSTEKRLLDDVLAMFVLHHPEHGHAVILPIISCLIDGSLVYSKEAHPFASFISLVCPSSENDYSEQWALACGEILRILTHYNRPIYKTEQQNGDTERNCLSKATTSGSPTSEPKAGSPTQHERKPLRPLSPWISDILLAAPLGIRSDYFRWCSGVMGKYAAGELKPPTIASRGSGKHPQLMPSTPRWAVANGAGVILSVCDDEVARYETATLTAVAVPALLLPPPTTSLDEHLVAGLPALEPYARLFHRYYAIATPSATQRLLLGLLEAPPSWAPDALDAAVQLVELLRAAEDYASGVRLPRNWMHLHFLRAIGIAMSMRAGVAADAAAALLFRILSQPALLFPPLSQVEGVEIQHAPIGGYSSNYRKQIEVPAAEATIEATAQGIASMLCAHGPEVEWRICTIWEAAYGLIPLNSSAVDLPEIIVATPLQPPILSWNLYIPLLKVLEYLPRGSPSEACLMKIFVATVETILSRTFPPESSRELTRKARSSFTTRSATKNLAMSELRAMVHALFLESCAGVELASRLLFVVLTVCVSHEAQSSGSKRPRSEYASTTENIEANQPVSNNQTANRKSRNVKGQGPVAAFDSYVLAAVCALACEVQLYPMISGGGNFSNSAVAGTITKPVKINGSSKEYGAGIDSAISHTRRILAILEALFSLKPSSVGTPWSYSSSEIVAAAMVAAHISELFRRSKALTHALSGLMRCKWDKEIHKRASSLYNLIDVHSKVVASIVDKAEPLEAYLKNTPVQKDSVTCLNWKQENTCASTTCFDTAVTSASRTEMNPRGNHKYARHSDEGSGRPSEKGIKDFLLDASDLANFLTADRLAGFYCGTQKLLRSVLAEKPELSFSVVSLLWHKLIAAPEIQPTAESTSAQQGWRQVVDALCNVVSATPAKAAAAVVLQAERELQPWIAKDDEEGQKMWKINQRIVKVLVELMRNHDRPESLVILASASDLLLRATDGMLVDGEACTLPQLELLEATARAIQPVLAWGPSGLAVVDGLSNLLKCRLPATIRCLSHPSAHVRALSTSVLRDIMNQSSIPIKVTPKLPTTEKNGMNSPSYRFFNAASIDWKADIQNCLNWEAHSLLSTTMPTQFLDTAARELGCTISLSQ | binds |

Second part, the molecule after the results:

| binding | Molecule |
| --- | --- |
| binds | FKF1, yeast two-hybrid prey (from UniProt Q9C9W9 1-619) |
| binds | ZTL, yeast two-hybrid prey (from UniProt Q94BT6 1-609) |

From paper doi:10.1101/162271
